## Results of single-concentration screens

Amino acid sequences for entries named in this document (tags omitted). Residues count along the entry.
UniProt P9WFT3, whole entry: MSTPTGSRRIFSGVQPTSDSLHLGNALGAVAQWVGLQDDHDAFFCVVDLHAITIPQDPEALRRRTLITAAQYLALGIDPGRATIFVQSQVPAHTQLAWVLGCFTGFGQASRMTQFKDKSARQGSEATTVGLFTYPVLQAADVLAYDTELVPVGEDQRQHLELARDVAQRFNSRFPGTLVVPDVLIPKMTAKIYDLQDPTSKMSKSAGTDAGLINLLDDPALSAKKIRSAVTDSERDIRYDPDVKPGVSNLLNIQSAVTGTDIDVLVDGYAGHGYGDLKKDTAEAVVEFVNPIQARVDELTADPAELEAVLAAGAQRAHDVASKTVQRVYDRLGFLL
UniProt I6X8D2, whole entry: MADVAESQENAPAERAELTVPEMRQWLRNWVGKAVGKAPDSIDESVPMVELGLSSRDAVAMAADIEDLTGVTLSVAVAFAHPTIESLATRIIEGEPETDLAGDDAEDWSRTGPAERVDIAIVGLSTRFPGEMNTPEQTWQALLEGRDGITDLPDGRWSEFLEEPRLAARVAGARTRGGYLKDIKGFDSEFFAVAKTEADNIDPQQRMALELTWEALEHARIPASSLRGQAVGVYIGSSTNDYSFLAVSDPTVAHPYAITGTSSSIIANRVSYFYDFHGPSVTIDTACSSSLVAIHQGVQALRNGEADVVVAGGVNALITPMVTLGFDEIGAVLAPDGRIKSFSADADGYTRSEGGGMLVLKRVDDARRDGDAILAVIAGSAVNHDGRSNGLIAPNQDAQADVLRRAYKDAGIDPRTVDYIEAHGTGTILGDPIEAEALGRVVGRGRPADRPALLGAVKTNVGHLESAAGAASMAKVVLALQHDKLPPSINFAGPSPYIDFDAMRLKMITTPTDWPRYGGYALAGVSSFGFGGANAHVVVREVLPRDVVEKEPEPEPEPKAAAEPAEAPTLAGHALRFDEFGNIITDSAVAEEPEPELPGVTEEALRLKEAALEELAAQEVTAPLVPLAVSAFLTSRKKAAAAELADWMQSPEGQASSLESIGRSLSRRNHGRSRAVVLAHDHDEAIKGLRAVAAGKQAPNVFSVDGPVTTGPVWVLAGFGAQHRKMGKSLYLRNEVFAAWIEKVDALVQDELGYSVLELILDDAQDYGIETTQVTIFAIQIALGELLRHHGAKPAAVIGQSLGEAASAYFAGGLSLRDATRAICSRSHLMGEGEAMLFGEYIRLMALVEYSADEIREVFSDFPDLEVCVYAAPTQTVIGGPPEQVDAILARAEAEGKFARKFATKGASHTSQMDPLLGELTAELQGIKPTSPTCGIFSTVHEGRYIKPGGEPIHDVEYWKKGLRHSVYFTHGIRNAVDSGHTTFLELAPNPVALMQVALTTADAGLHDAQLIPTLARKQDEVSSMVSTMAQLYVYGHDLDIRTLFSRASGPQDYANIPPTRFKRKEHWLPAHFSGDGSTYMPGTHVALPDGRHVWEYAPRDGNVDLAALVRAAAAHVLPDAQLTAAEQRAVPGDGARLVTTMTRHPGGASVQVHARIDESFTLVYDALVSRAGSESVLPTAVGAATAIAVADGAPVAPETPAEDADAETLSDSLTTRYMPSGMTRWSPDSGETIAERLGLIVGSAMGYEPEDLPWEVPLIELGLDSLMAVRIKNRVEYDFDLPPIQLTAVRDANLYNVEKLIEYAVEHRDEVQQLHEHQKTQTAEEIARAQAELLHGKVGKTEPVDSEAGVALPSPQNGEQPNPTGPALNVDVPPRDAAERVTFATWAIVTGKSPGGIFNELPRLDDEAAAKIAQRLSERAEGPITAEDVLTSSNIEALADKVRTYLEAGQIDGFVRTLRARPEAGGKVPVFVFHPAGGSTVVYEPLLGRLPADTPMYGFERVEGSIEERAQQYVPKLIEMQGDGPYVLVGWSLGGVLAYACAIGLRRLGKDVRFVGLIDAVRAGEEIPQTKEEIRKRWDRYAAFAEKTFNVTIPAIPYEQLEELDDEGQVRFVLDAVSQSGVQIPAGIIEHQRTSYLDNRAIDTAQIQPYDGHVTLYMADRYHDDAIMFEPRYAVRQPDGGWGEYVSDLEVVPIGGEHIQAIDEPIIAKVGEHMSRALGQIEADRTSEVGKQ
UniProt A4I591, 1-473: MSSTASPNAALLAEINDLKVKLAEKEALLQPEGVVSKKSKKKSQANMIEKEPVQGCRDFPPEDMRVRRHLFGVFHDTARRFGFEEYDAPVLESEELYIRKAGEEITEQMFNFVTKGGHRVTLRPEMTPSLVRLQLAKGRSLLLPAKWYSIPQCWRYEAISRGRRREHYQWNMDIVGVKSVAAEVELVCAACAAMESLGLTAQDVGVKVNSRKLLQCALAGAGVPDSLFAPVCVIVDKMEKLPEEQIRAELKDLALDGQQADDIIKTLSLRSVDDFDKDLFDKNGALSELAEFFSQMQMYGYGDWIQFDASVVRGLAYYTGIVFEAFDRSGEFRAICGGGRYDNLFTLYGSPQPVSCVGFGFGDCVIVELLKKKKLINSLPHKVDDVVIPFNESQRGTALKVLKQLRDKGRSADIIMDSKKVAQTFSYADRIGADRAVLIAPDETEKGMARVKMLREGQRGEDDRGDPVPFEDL
UniProt Q8IDJ8, 1-583: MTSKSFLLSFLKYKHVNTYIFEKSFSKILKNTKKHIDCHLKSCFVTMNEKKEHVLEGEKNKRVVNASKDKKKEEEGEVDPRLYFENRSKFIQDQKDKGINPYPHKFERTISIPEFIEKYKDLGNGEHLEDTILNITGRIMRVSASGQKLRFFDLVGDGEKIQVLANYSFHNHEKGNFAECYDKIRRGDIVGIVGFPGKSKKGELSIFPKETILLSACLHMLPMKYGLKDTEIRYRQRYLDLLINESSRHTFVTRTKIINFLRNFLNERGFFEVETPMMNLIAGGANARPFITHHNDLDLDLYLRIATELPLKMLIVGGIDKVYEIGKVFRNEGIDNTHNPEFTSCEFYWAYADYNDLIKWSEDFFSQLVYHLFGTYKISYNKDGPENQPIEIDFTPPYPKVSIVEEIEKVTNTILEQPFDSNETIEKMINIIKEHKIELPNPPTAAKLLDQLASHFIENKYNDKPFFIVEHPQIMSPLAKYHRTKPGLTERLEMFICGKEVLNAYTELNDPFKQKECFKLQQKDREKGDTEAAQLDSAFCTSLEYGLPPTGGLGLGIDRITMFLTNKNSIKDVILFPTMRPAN

From ChEMBL document CHEMBL3988442, “University of Dundee, Small-Polar-MMV Screening Library” (2021).

MtTrpRS: 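Tryptophan-tRNA ligase, Mycobacterium tuberculosis (UniProt P9WFT3). Enzyme assay of tryptophanyl-tRNA synthetase; the read-out is not stated. Concentration: 10 µM. Direction is not recorded; retested compounds ran higher, which suggests that high means inhibition. Of about 65,000 compounds tested this way, about 64 (0.098%) reached 50% or more in at least one test.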
Pks13 thioesterase: 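Polyketide synthase Pks13, Mycobacterium tuberculosis (UniProt I6X8D2). Enzyme assay of the thioesterase domain of polyketide synthase 13; the read-out is not stated. Tested at 30 µM. The record gives no direction; the compounds picked for IC50 retests had high values, so higher reads as stronger inhibition. Of about 67,000 compounds tested this way, about 300 (0.46%) reached 50% or more in at least one test.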
LiHisRS: 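Histidine-tRNA ligase, Leishmania infantum (UniProt A4I591). Enzyme assay of histidyl-tRNA synthetase; the read-out is not stated. Compounds at 30 µM. The record gives no direction; compounds that gave an IC50 in retests scored well above the rest, so higher reads as stronger inhibition. The assay is labelled LdHisRS but filed under L. infantum. Size under these conditions: about 69,000 compounds, about 410 of them at 50% or above in at least one test.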
PfKRS1: 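Lysine-tRNA ligase, Plasmodium falciparum 3D7 (UniProt Q8IDJ8). Enzyme assay of the cytosolic lysyl-tRNA synthetase in 384-well plates, read by luminescence. Concentration: 30 µM. Direction is inferred from only a few compounds that gave an IC50; most scored high, so higher reads as stronger inhibition. Size under these conditions: about 69,000 compounds, about 49 of them at 50% or above in at least one test.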

Each number is a percent effect as filed. How 0% and 100% were set is not recorded. Most values in the screen are low, and negative values occur. This is an unselected part of the compounds tested. A dash means the value is not listed here; it may have been measured.

| Compound | MtTrpRS | Pks13 thioesterase | LiHisRS | PfKRS1 |
|---|---|---|---|---|
| `COC[C@@]12CCC[C@@H]1CN(C(=O)COc1ccccc1OC)C2` | - | -9.668 | 2.727 | 1.205 |
| `Cn1cccc1C(=O)N1CCn2cc(CNC(=O)CC3CC3)nc2C1` | -0.1762 | -34.24 | 13.87 | 4.564 |
| `C[C@@H]1CN(C(=O)CSc2nncn2C)C[C@@]1(O)C1CC1` | -4.024 | -26.21 | 13.7 | 5.123 |
| `CC(=O)N[C@@H]1CN(c2nc(C(N)=O)cs2)C[C@H]1c1ccc(C)o1` | 5.647 | -14.43 | 14.89 | 3.305 |
| `CS(=O)(=O)CCOCCNc1ccc2ccc(F)cc2n1` | -0.5187 | -18.63 | 7.895 | 2.65 |
| `CC(C)(C)c1cc(C(=O)N2CCC(c3cnccn3)CC2)[nH]n1` | 2.865 | -11.72 | 0 | 1.58 |
| `COC[C@@H]1CCC[C@]12CN(CCc1ccccc1)CCO2` | -1.521 | -2.12 | 5.128 | 1.877 |
| `Cc1nnsc1CN(C)Cc1ccc(C(=O)Nc2sccc2C#N)cc1` | -5.924 | -1.06 | 20 | 5.638 |
| `O=C(Nc1cnc2n1CCCC2)c1cccc(-n2cnnc2)c1` | -1.687 | -45.74 | 31.51 | 0.09985 |
| `Cc1ccc(NC2CCN(C(=O)c3ccc(C)o3)CC2)nn1` | -1.144 | -9.628 | 16.51 | 1.334 |
| `COCCN(C)Cc1cn(C)nc1-c1ccc2c(c1)OCCO2` | -0.7508 | 2.99 | 11.29 | -0.5076 |
| `O=C(CSc1ccc(Br)cc1)NS(=O)(=O)c1ccc2c(c1)OCCO2` | -4.331 | -6.744 | 14.29 | -1.908 |
| `CCn1cnnc1CCNC(=O)c1ccc(Br)cc1F` | -6.158 | 9.858 | 15.5 | 7.239 |
| `COC(=O)c1ccc(N2CCN(C(=O)c3cccnc3)C(C)C2)cc1` (stereo unspecified) | -10.57 | 6.827 | 14.55 | -1.318 |
| `COCCC(=O)N(C)CCC1=CCN(C)CC1` | 1.211 | 4.662 | 15.29 | -2.174 |
| `Cc1oc(-c2ccco2)nc1CC(=O)N1CCC(C(O)C(F)(F)F)CC1` (stereo unspecified) | 1.955 | 1.251 | 10.67 | 6.69 |
| `O=C(N[C@@H]1CN(Cc2ccc3[nH]ccc3c2)C[C@H]1O)c1cscn1` | - | -27.43 | 21.74 | 1.487 |
| `c1cc2c(cc1CN1CCC(Cc3noc(C4CC4)n3)CC1)OCCO2` | -0.5161 | -20.43 | 13.83 | -5.186 |
| `COCc1cc(NCc2cc(F)ccc2F)n2nccc2n1` | 0.2138 | -12.75 | 9.615 | 2.26 |
| `Cn1cc(C(=O)CC2CCCN2C(=O)c2cncc3ccccc23)cn1` (stereo unspecified) | -1.267 | -6.55 | 16.22 | 5.396 |
| `CCC(NC(=O)c1ccco1)c1nc(C(F)(F)F)cs1` (stereo unspecified) | 2.2 | -35.12 | 14.29 | 12.52 |
| `O=C(NC1(c2nc(C3CC3)no2)CCCCC1)c1ccncc1` | -1.183 | -22.29 | 10.17 | 5.783 |
| `O=C(O)c1cc(S(=O)(=O)Nc2cc(F)ccc2F)cc2c1OCCO2` | 2.632 | -5.739 | 13.64 | 3.543 |
| `Cc1cnc(N2C(=O)CSC2c2ccccc2)s1` (stereo unspecified) | -1.387 | 8.054 | 12.64 | 3.224 |
| `Fc1ccccc1CN1CCCC2(CCN(c3ncccn3)C2)C1` (stereo unspecified) | -4.673 | -27.47 | 30.26 | 8.043 |
| `CNC(=O)C1(C)CN(c2nc(C)cc(C)n2)CCO1` (stereo unspecified) | 14.91 | -25 | 5.674 | -1.693 |
| `CCc1noc(CN(CC)C(=O)C2CC(=O)N(Cc3ccncc3)C2)n1` (stereo unspecified) | -1.952 | -15.81 | 9.836 | 4.053 |
| `C[C@H](NC(=O)OC(C)(C)C)c1nnc(S(=O)(=O)Cc2cccc(F)c2)o1` | -3.352 | -3.582 | 21.74 | -4.264 |
| `CC(C)c1nc(CN(C)C2CCN(Cc3nnc(C4CC4)o3)C2)no1` (stereo unspecified) | 5.735 | -26.21 | 10.26 | 2.13 |
| `Cc1c(COC(C)C)cccc1NC(=O)N1CC[C@H](O)C1` | -5.508 | - | 9.91 | 4.271 |
| `CCOCCn1nc(C)cc1C(=O)N1CC[C@](O)(CC)[C@H](O)C1` | -2.246 | 3.633 | 8.8 | -0.5515 |
| `Cc1oc(C)c(C(=O)N2CCCN(c3nccs3)CC2)c1C` | 2.086 | -14.87 | 0 | -1.187 |
| `CCN(Cc1cccc2c1OCO2)C(=O)NCCOC` | 0.3975 | -13.28 | 6.838 | 0.5627 |
| `COc1ccc(-n2ccc(CNCc3ccc(OC)c(O)c3)n2)cc1` | -5.21 | -5.507 | 8.036 | 1.963 |
| `CN(CCO)Cc1nnc(C2CCN(C(=O)c3ccccn3)CC2)n1C` | 5.255 | -28.83 | 2.083 | 0.08898 |
| `Cc1nn(C)c2cnn(CCCNS(=O)(=O)Cc3ccccc3)c12` | 1.91 | 9.93 | 20.99 | 0.5715 |
| `CN(CC(N)=O)Cc1c(Cl)ccc2cccnc12` | -10.55 | - | 6.25 | 0.8447 |
| `CN(C)c1ncccc1CNC(=O)N1CCN(C)c2ccccc2C1` | -2.031 | -40.87 | 8 | 2.704 |
| `CC(CNC(=O)c1cc(Cl)ccc1I)N1CCCC1` (stereo unspecified) | 5.595 | -7.299 | 12.24 | 1.41 |
| `C[C@H]1C(=O)NC[C@H]2CN(Cc3cccc(F)c3)C[C@H]21` | -2.653 | -2.569 | 15.6 | 0.06078 |
| `CCC(CNS(C)(=O)=O)Oc1ccccc1C` (stereo unspecified) | 0.6686 | -12.17 | 10.96 | -2.998 |
| `Cc1ccn(CCC(=O)N2CCCC2c2nnc(-c3scnc3C)o2)n1` (stereo unspecified) | 18.52 | -2.089 | 10.14 | -2.39 |
| `O=C(N1CCN(c2ccccc2O)CC1)C1(O)Cc2ccccc2C1` | 6.017 | -1.07 | 24.66 | 6.807 |
| `COCCCNC(=O)CCn1ncc2c(Cl)cccc21` | -2.72 | -9.668 | 13.79 | 4.246 |
| `CC(=O)N1CCN(CC(C)(O)c2cccc(C(F)(F)F)c2)CC1` (stereo unspecified) | -6.817 | -9.073 | 1.923 | -0.9129 |
| `O=C(NCCn1ccnc1)NCC(c1ccco1)N1CCCCC1` (stereo unspecified) | 0.86 | -23.5 | 2.667 | 3.593 |
| `CN(Cc1cc(C2CC2)[nH]n1)C(=O)c1ccccc1C1CCNC1` (stereo unspecified) | -1.698 | -5.064 | 0 | -0.9788 |
| `O=C(NCCc1ccccc1)NCC(O)c1cccs1` (stereo unspecified) | -1.854 | -26.18 | 28.57 | 1.278 |
| `O=C(C1CCOC1)N1CCC2(CC1)CN(Cc1nccs1)CCO2` (stereo unspecified) | 0.8403 | 1.328 | 10.09 | 6.438 |
| `FC(F)(F)c1ccc(-c2cc(NC3CCNCC3)nc3[nH]ccc23)nc1` | 4.094 | 15.14 | 63.93 | 5.487 |
| `CC(=O)c1cccc(NC(=O)N2CCCCC2CN2CCCC2=O)c1` (stereo unspecified) | -6.659 | -3.055 | 15.79 | 2.422 |
| `COc1ccc(OCCN(C)CCCn2cnc3c(N)ncnc32)cc1` | 2.203 | 41.71 | 14.29 | 3.458 |
| `CCc1ncc(CN(CCc2ccccc2)Cc2cccs2)cn1` | 2.604 | 15.55 | 12.95 | 1.324 |

Some entries from above, unchanged:

| Compound | MtTrpRS | Pks13 thioesterase | LiHisRS | PfKRS1 |
|---|---|---|---|---|
| `CC(=O)N1CCN(CC(C)(O)c2cccc(C(F)(F)F)c2)CC1` (stereo unspecified) | -6.817 | -9.073 | 1.923 | -0.9129 |
| `COC(=O)c1ccc(N2CCN(C(=O)c3cccnc3)C(C)C2)cc1` (stereo unspecified) | -10.57 | 6.827 | 14.55 | -1.318 |
| `CCC(CNS(C)(=O)=O)Oc1ccccc1C` (stereo unspecified) | 0.6686 | -12.17 | 10.96 | -2.998 |
| `COc1ccc(-n2ccc(CNCc3ccc(OC)c(O)c3)n2)cc1` | -5.21 | -5.507 | 8.036 | 1.963 |
| `O=C(O)c1cc(S(=O)(=O)Nc2cc(F)ccc2F)cc2c1OCCO2` | 2.632 | -5.739 | 13.64 | 3.543 |